Measurements taken from paper PMC4041447.
These are yes or no findings as the source states them, for the method shown. Binding seen in cells or lysates may run through a third protein. Some entries that bind do so weakly or less than the wild type.

Protein sequences, listed by entry. Tags and fused reporters are not part of them.
UniProt Q01167: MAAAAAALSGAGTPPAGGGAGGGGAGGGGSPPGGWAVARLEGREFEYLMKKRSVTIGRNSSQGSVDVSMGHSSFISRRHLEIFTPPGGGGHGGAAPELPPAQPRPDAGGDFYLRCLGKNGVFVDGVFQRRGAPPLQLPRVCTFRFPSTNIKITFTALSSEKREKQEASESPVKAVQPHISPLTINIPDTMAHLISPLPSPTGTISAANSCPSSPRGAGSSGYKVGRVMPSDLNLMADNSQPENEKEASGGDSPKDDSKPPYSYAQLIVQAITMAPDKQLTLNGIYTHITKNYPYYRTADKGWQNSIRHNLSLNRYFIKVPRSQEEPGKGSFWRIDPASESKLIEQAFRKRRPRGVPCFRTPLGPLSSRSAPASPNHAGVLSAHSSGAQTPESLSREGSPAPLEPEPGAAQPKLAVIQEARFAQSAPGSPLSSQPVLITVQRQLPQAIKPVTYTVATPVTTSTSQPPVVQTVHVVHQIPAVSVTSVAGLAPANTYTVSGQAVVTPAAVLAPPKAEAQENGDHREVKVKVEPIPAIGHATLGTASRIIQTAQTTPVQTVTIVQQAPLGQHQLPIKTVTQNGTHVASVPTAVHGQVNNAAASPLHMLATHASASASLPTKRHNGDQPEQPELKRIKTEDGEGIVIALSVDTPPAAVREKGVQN
UniProt Q76L83: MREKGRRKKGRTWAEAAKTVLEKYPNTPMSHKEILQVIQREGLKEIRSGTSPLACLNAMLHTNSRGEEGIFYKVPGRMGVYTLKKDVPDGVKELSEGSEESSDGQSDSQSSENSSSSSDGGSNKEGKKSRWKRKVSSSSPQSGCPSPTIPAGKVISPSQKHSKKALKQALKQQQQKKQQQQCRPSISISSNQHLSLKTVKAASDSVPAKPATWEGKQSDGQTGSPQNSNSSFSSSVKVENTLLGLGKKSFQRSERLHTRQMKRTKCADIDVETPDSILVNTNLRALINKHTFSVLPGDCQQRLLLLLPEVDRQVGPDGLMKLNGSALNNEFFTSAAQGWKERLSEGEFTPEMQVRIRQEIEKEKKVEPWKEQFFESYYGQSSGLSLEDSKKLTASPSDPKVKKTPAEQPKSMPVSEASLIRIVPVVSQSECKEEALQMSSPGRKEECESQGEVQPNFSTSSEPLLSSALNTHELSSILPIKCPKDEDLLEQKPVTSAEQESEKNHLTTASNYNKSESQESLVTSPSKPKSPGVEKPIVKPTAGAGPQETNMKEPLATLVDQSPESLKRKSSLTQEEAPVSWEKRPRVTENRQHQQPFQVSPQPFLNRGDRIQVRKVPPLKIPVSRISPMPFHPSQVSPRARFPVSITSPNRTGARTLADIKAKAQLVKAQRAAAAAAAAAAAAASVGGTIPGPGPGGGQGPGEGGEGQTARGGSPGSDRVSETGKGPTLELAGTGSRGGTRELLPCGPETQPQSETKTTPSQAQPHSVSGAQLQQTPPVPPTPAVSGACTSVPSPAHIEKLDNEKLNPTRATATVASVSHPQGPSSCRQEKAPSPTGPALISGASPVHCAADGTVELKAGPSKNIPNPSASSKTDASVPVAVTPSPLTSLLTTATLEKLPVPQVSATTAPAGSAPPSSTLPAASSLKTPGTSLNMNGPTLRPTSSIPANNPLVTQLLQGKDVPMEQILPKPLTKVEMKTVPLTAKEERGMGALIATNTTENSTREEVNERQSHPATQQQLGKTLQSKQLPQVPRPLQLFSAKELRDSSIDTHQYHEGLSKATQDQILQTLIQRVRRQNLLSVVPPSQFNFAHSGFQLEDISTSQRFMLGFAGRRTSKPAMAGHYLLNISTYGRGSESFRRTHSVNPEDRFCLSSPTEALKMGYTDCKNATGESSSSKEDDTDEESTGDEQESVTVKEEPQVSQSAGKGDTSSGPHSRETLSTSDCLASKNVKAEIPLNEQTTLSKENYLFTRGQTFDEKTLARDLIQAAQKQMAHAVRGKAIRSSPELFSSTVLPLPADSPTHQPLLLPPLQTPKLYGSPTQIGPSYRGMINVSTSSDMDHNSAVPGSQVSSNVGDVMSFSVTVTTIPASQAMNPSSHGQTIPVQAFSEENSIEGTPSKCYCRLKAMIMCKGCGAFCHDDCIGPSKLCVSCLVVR
UniProt Q13547: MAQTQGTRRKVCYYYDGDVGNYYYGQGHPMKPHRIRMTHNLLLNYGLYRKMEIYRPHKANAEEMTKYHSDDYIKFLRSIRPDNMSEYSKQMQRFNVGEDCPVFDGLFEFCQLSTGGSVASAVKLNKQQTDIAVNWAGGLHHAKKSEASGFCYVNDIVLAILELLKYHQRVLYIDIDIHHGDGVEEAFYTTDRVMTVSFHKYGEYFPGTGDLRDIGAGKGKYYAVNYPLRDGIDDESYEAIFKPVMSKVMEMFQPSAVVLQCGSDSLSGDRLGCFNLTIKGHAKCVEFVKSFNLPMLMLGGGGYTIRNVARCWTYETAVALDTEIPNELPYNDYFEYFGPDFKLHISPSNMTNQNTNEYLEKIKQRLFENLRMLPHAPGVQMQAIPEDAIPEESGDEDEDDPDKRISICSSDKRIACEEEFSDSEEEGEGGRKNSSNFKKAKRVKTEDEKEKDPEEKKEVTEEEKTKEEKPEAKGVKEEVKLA

Molecular target: Flag-tagged FOXK2 (FOXK2–HF) (UniProt Q01167)
Test: co-IP; anti-Flag (FOXK2) IP from U2OS–FOXK2–HF cells; endogenous partners detected by immunoblotting

binding | Substance
binds | endogenous ASXL2 (from UniProt Q76L83 1-1435)
binds | endogenous HDAC1 (from UniProt Q13547 1-482) (enzyme)
